Results from publication doi:10.1101/2021.09.14.460283.
These are yes or no findings as the source states them, for the method shown. In cells and extracts the contact can be indirect. Here binding means that the protein was enriched with, or labelled near, the bait; the list need not be complete.

Sequences of proteins named here, by UniProt entry; tags and fusion partners are left off.
UniProt Q15131: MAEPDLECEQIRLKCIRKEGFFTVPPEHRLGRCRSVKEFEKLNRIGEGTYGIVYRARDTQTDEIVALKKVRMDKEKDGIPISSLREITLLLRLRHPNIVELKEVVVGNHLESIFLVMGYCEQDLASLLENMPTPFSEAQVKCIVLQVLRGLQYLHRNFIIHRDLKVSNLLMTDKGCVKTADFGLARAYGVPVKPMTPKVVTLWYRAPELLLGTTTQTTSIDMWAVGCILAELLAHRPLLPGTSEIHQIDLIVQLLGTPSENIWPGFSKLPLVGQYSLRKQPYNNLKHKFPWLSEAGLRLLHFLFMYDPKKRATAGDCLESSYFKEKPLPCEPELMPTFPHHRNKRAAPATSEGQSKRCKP
UniProt P41240: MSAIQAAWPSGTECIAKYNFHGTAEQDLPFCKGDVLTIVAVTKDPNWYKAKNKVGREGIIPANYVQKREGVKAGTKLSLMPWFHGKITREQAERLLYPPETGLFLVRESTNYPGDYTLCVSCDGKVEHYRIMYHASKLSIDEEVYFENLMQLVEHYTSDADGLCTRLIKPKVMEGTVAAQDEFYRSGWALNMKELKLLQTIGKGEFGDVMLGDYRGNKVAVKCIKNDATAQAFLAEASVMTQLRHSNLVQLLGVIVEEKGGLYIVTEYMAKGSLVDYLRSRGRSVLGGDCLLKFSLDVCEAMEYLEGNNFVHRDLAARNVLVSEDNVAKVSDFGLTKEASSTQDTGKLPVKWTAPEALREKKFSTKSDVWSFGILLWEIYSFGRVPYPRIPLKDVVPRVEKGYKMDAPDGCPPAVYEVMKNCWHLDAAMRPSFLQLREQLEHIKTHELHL
UniProt Q2M2I8: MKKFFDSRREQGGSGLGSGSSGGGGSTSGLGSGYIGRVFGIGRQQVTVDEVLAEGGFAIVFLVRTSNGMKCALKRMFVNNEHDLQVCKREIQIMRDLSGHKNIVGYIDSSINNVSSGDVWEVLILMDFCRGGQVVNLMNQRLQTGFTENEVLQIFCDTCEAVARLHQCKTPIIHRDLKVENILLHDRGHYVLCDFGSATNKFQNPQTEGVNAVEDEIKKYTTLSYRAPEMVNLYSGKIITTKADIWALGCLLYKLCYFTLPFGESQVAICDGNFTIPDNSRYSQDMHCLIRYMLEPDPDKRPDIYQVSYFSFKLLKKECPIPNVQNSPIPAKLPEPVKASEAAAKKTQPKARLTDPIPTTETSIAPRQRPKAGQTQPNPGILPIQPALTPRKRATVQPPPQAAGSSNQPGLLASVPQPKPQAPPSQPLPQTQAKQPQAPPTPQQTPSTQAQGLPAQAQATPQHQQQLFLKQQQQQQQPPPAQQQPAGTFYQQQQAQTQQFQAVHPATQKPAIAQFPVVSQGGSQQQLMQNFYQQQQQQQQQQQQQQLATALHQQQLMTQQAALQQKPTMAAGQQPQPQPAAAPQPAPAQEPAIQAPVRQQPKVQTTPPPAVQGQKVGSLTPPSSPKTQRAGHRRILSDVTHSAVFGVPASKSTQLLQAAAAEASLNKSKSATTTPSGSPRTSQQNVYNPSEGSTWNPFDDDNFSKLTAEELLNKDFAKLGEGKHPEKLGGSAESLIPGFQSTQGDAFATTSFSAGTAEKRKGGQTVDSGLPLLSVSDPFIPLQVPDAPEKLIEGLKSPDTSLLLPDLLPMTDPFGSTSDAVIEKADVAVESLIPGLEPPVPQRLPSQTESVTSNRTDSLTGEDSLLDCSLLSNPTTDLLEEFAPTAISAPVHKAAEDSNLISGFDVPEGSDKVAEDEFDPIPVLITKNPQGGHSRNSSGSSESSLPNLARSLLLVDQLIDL

B1: geminin (GMNN) (protein, UniProt O75496 1-209)
chain: MNPSMKQKQEEIKENIKNSSVPRRTLKMIQPSASGSLVGRENELSAGLSKRKHRNDHLTSTTSSPGVIVPESSENKNLGGVTQESFDLMIKENPSSQYWKEVAEKRRKALYEALKENEKLHKEIEQKDNEIARLKKENKELAEVAEHVQYMAELIERLNGEPLDNFESLDNQEFDSEEETVEDSLVEDSEIGTCAEGTVSSSTDAKPCI
B2: tetratricopeptide repeat protein 14 (TTC14) (protein, UniProt Q96N46 1-770)
chain: MDRDLLRQSLNCHGSSLLSLLRSEQQDNPHFRSLLGSAAEPARGPPPQHPLQGRKEKRVDNIEIQKFISKKADLLFALSWKSDAPATSEINEDSEDHYAIMPPLEQFMEIPSMDRRELFFRDIERGDIVIGRISSIREFGFFMVLICLGSGIMRDIAHLEITALCPLRDVPSHSNHGDPLSYYQTGDIIRAGIKDIDRYHEKLAVSLYSSSLPPHLSGIKLGVISSEELPLYYRRSVELNSNSLESYENVMQSSLGFVNPGVVEFLLEKLGIDESNPPSLMRGLQSKNFSEDDFASALRKKQSASWALKCVKIGVDYFKVGRHVDAMNEYNKALEIDKQNVEALVARGALYATKGSLNKAIEDFELALENCPTHRNARKYLCQTLVERGGQLEEEEKFLNAESYYKKALALDETFKDAEDALQKLHKYMQKSLELREKQAEKEEKQKTKKIETSAEKLRKLLKEEKRLKKKRRKSTSSSSVSSADESVSSSSSSSSSGHKRHKKHKRNRSESSRSSRRHSSRASSNQIDQNRKDECYPVPANTSASFLNHKQEVEKLLGKQDRLQYEKTQIKEKDRCPLSSSSLEIPDDFGGRSEDPRDFYNSYKTQAGSSKTEKPYKSERHFSSRRNSSDSFCRNSEDKIYGYRRFEKDIEGRKEHYRRWEPGSVRHSTSPASSEYSWKSVEKYKKYAHSGSRDFSRHEQRYRLNTNQGEYEREDNYGEDIKTEVPEEDALSSKEHSESSVKKNLPQNLLNIFNQIAEFEKEKGNKSKN
B3: retinoblastoma-like protein 1 (RBL1) (protein, UniProt P28749 1-1068)
chain: MFEDKPHAEGAAVVAAAGEALQALCQELNLDEGSAAEALDDFTAIRGNYSLEGEVTHWLACSLYVACRKSIIPTVGKGIMEGNCVSLTRILRSAKLSLIQFFSKMKKWMDMSNLPQEFRERIERLERNFEVSTVIFKKYEPIFLDIFQNPYEEPPKLPRSRKQRRIPCSVKDLFNFCWTLFVYTKGNFRMIGDDLVNSYHLLLCCLDLIFANAIMCPNRQDLLNPSFKGLPSDFHTADFTASEEPPCIIAVLCELHDGLLVEAKGIKEHYFKPYISKLFDRKILKGECLLDLSSFTDNSKAVNKEYEEYVLTVGDFDERIFLGADAEEEIGTPRKFTRDTPLGKLTAQANVEYNLQQHFEKKRSFAPSTPLTGRRYLREKEAVITPVASATQSVSRLQSIVAGLKNAPSDQLINIFESCVRNPVENIMKILKGIGETFCQHYTQSTDEQPGSHIDFAVNRLKLAEILYYKILETVMVQETRRLHGMDMSVLLEQDIFHRSLMACCLEIVLFAYSSPRTFPWIIEVLNLQPFYFYKVIEVVIRSEEGLSRDMVKHLNSIEEQILESLAWSHDSALWEALQVSANKVPTCEEVIFPNNFETGNGGNVQGHLPLMPMSPLMHPRVKEVRTDSGSLRRDMQPLSPISVHERYSSPTAGSAKRRLFGEDPPKEMLMDKIITEGTKLKIAPSSSITAENVSILPGQTLLTMATAPVTGTTGHKVTIPLHGVANDAGEITLIPLSMNTNQESKVKSPVSLTAHSLIGASPKQTNLTKAQEVHSTGINRPKRTGSLALFYRKVYHLASVRLRDLCLKLDVSNELRRKIWTCFEFTLVHCPDLMKDRHLDQLLLCAFYIMAKVTKEERTFQEIMKSYRNQPQANSHVYRSVLLKSIPREVVAYNKNINDDFEMIDCDLEDATKTPDCSSGPVKEERGDLIKFYNTIYVGRVKSFALKYDLANQDHMMDAPPLSPFPHIKQQPGSPRRISQQHSIYISPHKNGSGLTPRSALLYKFNGSPSKSLKDINNMIRQGEQRTKKRVIAIDSDAESPAKRVCQENDDVLLKRLQDVVSERANH
B4: CCNQ (FAM58A) (protein, UniProt Q8N1B3 1-248)
chain: MEAPEGGGGGPAARGPEGQPAPEARVHFRVARFIMEAGVKLGMRSIPIATACTIYHKFFCETNLDAYDPYLIAMSSIYLAGKVEEQHLRTRDIINVSNRYFNPSGEPLELDSRFWELRDSIVQCELLMLRVLRFQVSFQHPHKYLLHYLVSLQNWLNRHSWQRTPVAVTAWALLRDSYHGALCLRFQAQHIAVAVLYLALQVYGVEVPAEVEAEKPWWQVFNDDLTKPIIDNIVSDLIQIYTMDTEIP
B5: CDK5 and ABL1 enzyme substrate 2 (CABLES2) (protein, UniProt Q9BTV7 1-478)
chain: MAAAAAGGAPGPAPGPAGPPPPAAPTSAARAPPQALRRRGDSRRRQAALFFLNNISLDGRPPSLGPGGEKPPPPPAEAREPPAPPPPEPPTGLPARTPAPQGLLSPTQVPTGLGLDGQRQRKRVTSQRCSLEFLEDAVGCAPAQRTKHTSGSPRHKGLKKTHFIKNMRQYDTRNSRIVLICAKRSLCAAFSVLPYGEGLRISDLRVDSQKQRHPSGGVSVSSEMVFELEGVELGADGKVVSYAKFLYPTNALVTHKSDSHGLLPTPRPSVPRTLPGSRHKPAPTKSAPASTELGSDVGDTLEYNPNLLDDPQWPCGKHKRVLIFASYMTTVIEYVKPSDLKKDMNETFREKFPHVKLTLSKIRSLKREMRSLSEECSLEPVTVAMAYVYFEKLVLQGKLSKQNRKLCAGACVLLAAKISSDLRKSGVTQLIDKLEERFRFNRRDLIGFEFTVLVALELALYLPENQVLPHYRRLTQQF
B6: CDK5 and ABL1 enzyme substrate 1 (CABLES1) (protein, UniProt Q8TDN4 1-633)
chain: MAAAAAAATTAACSSGSAGTDAAGASGLQQPPPQPQPQPAAAAPAQPPPEPPRKPRMDPRRRQAALSFLTNISLDGRLPPQDAEWGGGEEGGAAKPGAGGACGARTRFSLLAAAERGGCIALAAPGTPAAGLAAGSGPCLPQPSSLPPLIPGGHATVSGPGVARGFASPLGAGRASGEQWQPPRPAPLAACAQLQLLDGSGAAGQEELEEDDAFISVQVPAAAFLGSGTPGSGSGSRGRLNSFTQGILPIAFSRPTSQNYCSLEQPGQGGSTSAFEQLQRSRRRLISQRSSLETLEDIEENAPLRRCRTLSGSPRPKNFKKIHFIKNMRQHDTRNGRIVLISGRRSFCSIFSVLPYRDSTQVGDLKLDGGRQSTGAVSLKEIIGLEGVELGADGKTVSYTQFLLPTNAFGARRNTIDSTSSFSQFRNLSHRSLSIGRASGTQGSLDTGSDLGDFMDYDPNLLDDPQWPCGKHKRVLIFPSYMTTVIDYVKPSDLKKDMNETFKEKFPHIKLTLSKIRSLKREMRKLAQEDCGLEEPTVAMAFVYFEKLALKGKLNKQNRKLCAGACVLLAAKIGSDLKKHEVKHLIDKLEEKFRLNRRELIAFEFPVLVALEFALHLPEHEVMPHYRRLVQSS
B7: transcription factor Dp-2 (TFDP2) (protein, UniProt Q14188 1-446)
chain: MTAKNVGLTSTNAEVRGFIDQNLSPTKGNISFVAFPVSNTNSPTKILPKTLGPINVNVGPQMIISTPQRLTSSGSVLIGSPYTPAPAMVTQTHIAEATGWVPGDRKRARKFIDSDFSESKRSKKGDKNGKGLRHFSMKVCEKVQRKGTTSYNEVADELVSEFTNSNNHLAADSAYDQKNIRRRVYDALNVLMAMNIISKEKKEIKWIGLPTNSAQECQNLEIEKQRRIERIKQKRAQLQELLLQQIAFKNLVQRNRQNEQQNQGPPALNSTIQLPFIIINTSRKTVIDCSISSDKFEYLFNFDNTFEIHDDIEVLKRMGMSFGLESGKCSLEDLKLAKSLVPKALEGYITDISTGPSWLNQGLLLNSTQSVSNLDLTTGATLPQSSVNQGLCLDAEVALATGQFLAPNSHQSSSAASHCSESRGETPCSFNDEDEEDDEEDSSSPE
B8: PURA (protein, UniProt Q00577 1-322)
chain: MADRDSGSEQGGAALGSGGSLGHPGSGSGSGGGGGGGGGGGGSGGGGGGAPGGLQHETQELASKRVDIQNKRFYLDVKQNAKGRFLKIAEVGAGGNKSRLTLSMSVAVEFRDYLGDFIEHYAQLGPSQPPDLAQAQDEPRRALKSEFLVRENRKYYMDLKENQRGRFLRIRQTVNRGPGLGSTQGQTIALPAQGLIEFRDALAKLIDDYGVEEEPAELPEGTSLTVDNKRFFFDVGSNKYGVFMRVSEVKPTYRNSITVPYKVWAKFGHTFCKYSEEMKKIQEKQREKRAACEQLHQQQQQQQEETAAATLLLQGEEEGEED
B9: UBASH3A (protein, UniProt P57075 1-661)
chain: MAAGETQLYAKVSNKLKSRSSPSLLEPLLAMGFPVHTALKALAATGRKTAEEALAWLHDHCNDPSLDDPIPQEYALFLCPTGPLLEKLQEFWRESKRQCAKNRAHEVFPHVTLCDFFTCEDQKVECLYEALKRAGDRLLGSFPTAVPLALHSSISYLGFFVSGSPADVIREFAMTFATEASLLAGTSVSRFWIFSQVPGHGPNLRLSNLTRASFVSHYILQKYCSVKPCTKQLHLTLAHKFYPHHQRTLEQLARAIPLGHSCQWTAALYSRDMRFVHYQTLRALFQYKPQNVDELTLSPGDYIFVDPTQQDEASEGWVIGISQRTGCRGFLPENYTDRASESDTWVKHRMYTFSLATDLNSRKDGEASSRCSGEFLPQTARSLSSLQALQATVARKSVLVVRHGERVDQIFGKAWLQQCSTPDGKYYRPDLNFPCSLPRRSRGIKDFENDPPLSSCGIFQSRIAGDALLDSGIRISSVFASPALRCVQTAKLILEELKLEKKIKIRVEPGIFEWTKWEAGKTTPTLMSLEELKEANFNIDTDYRPAFPLSALMPAESYQEYMDRCTASMVQIVNTCPQDTGVILIVSHGSTLDSCTRPLLGLPPRECGDFAQLVRKIPSLGMCFCEENKEEGKWELVNPPVKTLTHGANAAFNWRNWISGN
B10: REPS1 (protein, UniProt Q96D71 1-796)
chain: MEGLTLSDAEQKYYSDLFSYCDIESTKKVVVNGRVLELFRAAQLPNDVVLQIMELCGATRLGYFGRSQFYIALKLVAVAQSGFPLRVESINTVKDLPLPRFVASKNEQESRHAASYSSDSENQGSYSGVIPPPPGRGQVKKGSVSHDTVQPRTSADAQEPASPVVSPQQSPPTSPHTWRKHSRHPSGGNSERPLAGPGPFWSPFGEAQSGSSAGDAVWSGHSPPPPQENWVSFADTPPTSTLLTMHPASVQDQTTVRTVASATTAIEIRRQSSSYDDPWKITDEQRQYYVNQFKTIQPDLNGFIPGSAAKEFFTKSKLPILELSHIWELSDFDKDGALTLDEFCAAFHLVVARKNGYDLPEKLPESLMPKLIDLEDSADVGDQPGEVGYSGSPAEAPPSKSPSMPSLNQTWPELNQSSEQWETFSERSSSSQTLTQFDSNIAPADPDTAIVHPVPIRMTPSKIHMQEMELKRTGSDHTNPTSPLLVKPSDLLEENKINSSVKFASGNTVADGYSSSDSFTSDPEQIGSNVTRQRSHSGTSPDNTAPPPPPPRPQPSHSRSSSLDMNRTFTVTTGQQQAGVVAHPPAVPPRPQPSQAPGPAVHRPVDADGLITHTSTSPQQIPEQPNFADFSQFEVFAASNVNDEQDDEAEKHPEVLPAEKASDPASSLRVAKTDSKTEEKTAASAPANVSKGTTPLAPPPKPVRRRLKSEDELRPEVDEHTQKTGVLAAVLASQPSIPRSVGKDKKAIQASIRRNKETNTVLARLNSELQQQLKDVLEERISLEVQLEQLRPFSHL

The binders below were run against CDK10 (human (endogenous in cancer cell lines)) (UniProt Q15131) (assay: affinity purification with mass spectrometry).

binding, binds:
B1
B2
B3
B4
B5
B6
B7

The binders below were run against CSK (human (endogenous in Jurkat, FOCUS and other cancer cell lines)) (UniProt P41240) (assay: affinity purification with mass spectrometry).

binding, binds:
B8
B9

Each binder was assayed against adapter-associated kinase 1 (AAK1) (human (endogenous in FOCUS)) (UniProt Q2M2I8) (assay: affinity purification with mass spectrometry).

binding, binds:
B10
